Measurements: the supplement of paper PMC12889115
This is one part of the list. Values are raw readings; no control value is given beside them.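 Primary screen: polymyxin B was added at a level permeabilizing Salmonella outer membranes while sparing inner membranes. DMSO wells, both with and without polymyxin B, established maximum growth. Plate-to-plate variation meant each plate was ranked on its own, and the lowest-OD600 compounds were selected as hits.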

Test system: Salmonella enterica serovar Typhimurium SL1344
Assay: bacterial growth OD600 after 18 h with compound and polymyxin B; higher = more bacterial growth (less inhibition)
Settings: 50 µM, Mueller-Hinton broth

Row | SMILES | bacterial growth OD600 (polymyxin B 0.75 µg/mL) | bacterial growth OD600 (polymyxin B 1 µg/mL)
1 | Cc1ncc2c(c1CNC(=O)/C=C/c1cccs1)CCN(C(=O)Cc1ccc(F)c(F)c1)C2 | 0.663 | –
2 | COCC1CCCCN1C(=O)c1cc(COc2ccc3c(c2)OCO3)[nH]n1 (centres undefined) | – | 0.936
3 | CN(CC1CCCCO1)C(=O)c1coc(COc2ccc(F)cc2Cl)n1 (centres undefined) | – | 0.91
4 | CCc1csc(CNC(=O)c2ccc(N3CCC(N(C)C)C3)nc2)n1 (centres undefined) | 0.832 | –
5 | CC(C)CCn1c(CN2CCN(C3CCCC3)CC2)cnc1S(=O)(=O)C(C)C | – | 0.994
6 | O=C1N(Cc2cccc(F)c2F)CCCC1(O)CNCc1ccc(F)cc1 (centres undefined) | – | 1.01
7 | Cc1cc(CN(C)C(=O)CC(c2ccccc2)c2ccccc2Cl)n[nH]1 (centres undefined) | – | 0.666
8 | CCN(CCn1cccn1)Cc1nc(-c2ccc(C(=O)OC)cc2)oc1C | – | 0.814
9 | O=C(NCCCCCN1CCOCC1)C1CCC(=O)N(C2CCCC2)C1 (centres undefined) | – | 0.953
